The target in experiment [1] is phosphatase and tensin homologue (PTEN) (mouse (endogenous in MEFs)) (UniProt O08586). As to the kind of experiment: co-IP; lysate of Txnrd1^-/- MEFs (RIPA buffer, 1 to 2 mg protein) immunoprecipitated with rabbit anti-PTEN antibody on Dynabeads sheep anti rabbit IgG, overnight at 4 °C; immunoblotted for PTEN and Trx1; three repeats. On the technique in general: Immunoblotting shows a protein as a band on a membrane.

The chains behind the UniProt entries cited, without tags or fusion partners.
UniProt O08586: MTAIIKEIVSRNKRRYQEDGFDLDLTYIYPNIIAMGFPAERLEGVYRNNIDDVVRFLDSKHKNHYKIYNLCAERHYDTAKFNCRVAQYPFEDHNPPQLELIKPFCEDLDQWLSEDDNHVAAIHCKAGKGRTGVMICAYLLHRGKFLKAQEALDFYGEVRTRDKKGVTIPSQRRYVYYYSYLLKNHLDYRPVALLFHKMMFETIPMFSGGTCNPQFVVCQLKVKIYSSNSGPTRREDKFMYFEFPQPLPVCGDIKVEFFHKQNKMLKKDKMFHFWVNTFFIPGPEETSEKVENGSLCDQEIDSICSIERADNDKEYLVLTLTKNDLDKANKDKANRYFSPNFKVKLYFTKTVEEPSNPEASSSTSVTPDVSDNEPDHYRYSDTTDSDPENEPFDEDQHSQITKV

The target is the same in experiment [2]. Description: condition: only in parental Txnrd1^fl/fl MEFs (TrxR1 expressed); co-IP; lysate of parental Txnrd1^fl/fl MEFs (RIPA buffer, 1 to 2 mg protein) immunoprecipitated with rabbit anti-PTEN antibody on Dynabeads sheep anti rabbit IgG, overnight at 4 °C; immunoblotted for PTEN and Trx1; three repeats.

No constants are given. Whether binding was seen depends on the method and setting. In cells and extracts the contact can be indirect. Some binding calls cover weakened binding; strength is not graded here.

B1: thioredoxin 1 (Trx1) (protein, UniProt P10639 1-105)
chain: MVKLIESKEAFQEALAAAGDKLVVVDFSATWCGPCKMIKPFFHSLCDKYSNVVFLEVDVDDCQDVAADCEVKCMPTFQFYKKGQKVGEFSGANKEKLEASITEYA
With B1, the binding entry in experiment [1] was “binds”; in experiment [2], “no binding”.
